# Measurements: PubChem BioAssay AID2551 (National Center for Advancing Translational Sciences (NCATS), 2010)
# By UniProt entry, the sequences of proteins in these tests, tags left out. Where a name states a change or a piece, a line headed by the entry shows the natural chain unless it says otherwise.
# UniProt P51450: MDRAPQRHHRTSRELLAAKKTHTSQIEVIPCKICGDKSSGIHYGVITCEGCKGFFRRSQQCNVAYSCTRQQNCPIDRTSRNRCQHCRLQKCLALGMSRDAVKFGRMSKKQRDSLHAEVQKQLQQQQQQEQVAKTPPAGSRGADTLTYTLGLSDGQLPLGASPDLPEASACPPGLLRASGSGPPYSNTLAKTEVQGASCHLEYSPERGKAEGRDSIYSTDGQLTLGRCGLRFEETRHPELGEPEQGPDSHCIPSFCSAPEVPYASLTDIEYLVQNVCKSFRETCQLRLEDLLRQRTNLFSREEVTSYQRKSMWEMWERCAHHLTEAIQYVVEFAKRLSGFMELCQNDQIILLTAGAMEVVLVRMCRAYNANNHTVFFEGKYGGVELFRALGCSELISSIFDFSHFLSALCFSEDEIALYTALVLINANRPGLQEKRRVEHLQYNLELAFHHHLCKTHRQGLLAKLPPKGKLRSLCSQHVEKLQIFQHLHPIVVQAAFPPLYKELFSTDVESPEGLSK
# Among all 310,000 compounds or so, about 17,000 (5.5%) were called active. Inconclusive means that the source gave no clear call. Such entries were picked first, then a sample of the others. Calls follow the shape of the dose curve; as a rule, active = well fitted inhibition curve with a large enough effect; inconclusive = small, poorly fitted or top-dose-only effect, or effect the other way; inactive = no such curve, though single readings can be large or run the other way. Where the call is inconclusive, the potency comes from a doubtful curve fit.
# Target: Nuclear receptor ROR-gamma (Mus musculus) (UniProt P51450)
# Assay: qHTS for inhibitors of ROR gamma transcriptional activity; also: nearly all actives have a fitted effect of over 60% in size
# Conditions: Drosophila S2 Gal4-RORgamma UAS-luciferase reporter, 20 h; activity change, negative = inhibition: at 53.6 µM (top of the series)
# Method in brief: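 ROR gamma transcriptional activity was tracked as Gal4-UAS luciferase output in stably transfected Drosophila Schneider cells, with compound added 1 hr before 700 uM copper sulfate induction and a 20 hr ambient-temperature incubation.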
# % is scaled to controls: 0 for no effect and ±100 for the full control effect; potency is read from the fitted curve at half-maximal effect.
SMILES,Potency,"activity change, negative = inhibition"
CC(=O)N1CCC(N(CCN2CCOCC2)C(=S)Nc2cc(C)cc(C)c2)CC1,"inconclusive: 0.708 µM [inhibitor, single point]",
COc1ccc(-c2nnc(-c3ccccc3O)o2)cc1,"inconclusive: 7.08 µM [inhibitor, partial curve, poor fit]",
O=C(OCc1ccccc1)/C(=C/c1ccccc1Cl)NC(=O)c1ccco1,"inconclusive: 35.5 µM [activator, single point]",
Oc1ccccc1N1CCN(Cc2ncc(-c3ccccc3)o2)CC1,,inactive: 3.33%
COc1ccccc1CNc1ncnc2ccc(-c3cccc(C#N)c3)cc12,"inconclusive: 11.2 µM [activator, partial curve]",
Cc1cc(-c2ccccc2)n2ncc(-c3ccccc3)c2n1,"inconclusive: 17.8 µM [inhibitor, single point]",
CCCCNC(=S)N1CCN(Cc2ccc3c(c2)OCO3)CC1,,inactive: 36.9%
Cc1ccccc1-n1c(=O)n(Cc2ccccc2)c(=O)c2[nH]cnc21,active: 0.282 µM,
COc1ccccc1/C(C)=N/NC(=S)NCc1ccccc1,active: 3.16 µM,
CC(C)(C)C(=O)Nc1sc(-c2ccccc2)cc1C(=O)O,"inconclusive: 3.16 µM [activator, full curve, poor fit]",
Cc1cc(/C=C2\SC(=O)N(C)C2=O)c(C)n1-c1ccc(S(N)(=O)=O)cc1,"inconclusive: 17.8 µM [activator, single point]",
COc1ccc(OC)c(/C=C/C(=O)c2ccc3c(c2)OCCO3)c1,active: 10 µM,
COc1ccc(NC(=O)C(CC(=O)O)Cc2ccc(C)cc2)cc1 (stereo unspecified),,inactive: -6.35%
Cn1c(-c2sc3ccccc3c2Cl)n[nH]c1=S,"inconclusive: 35.5 µM [inhibitor, single point]",
Cc1nn(-c2ccccc2)c(C)c1C(=O)OCc1ccc(C#N)cc1,"inconclusive: 31.6 µM [activator, single point]",
O=C(Nc1cc(C(F)(F)F)ccc1Cl)c1ccncc1,,inactive: -2.62%
O=C(COC(=O)c1ccccc1Br)NCCC1=CCCCC1,"inconclusive: 28.2 µM [activator, single point]",
O=C(CSc1ccc(Cl)cc1)Nc1cccc(-c2nc3ccccc3[nH]2)c1,"inconclusive: 28.2 µM [inhibitor, single point]",
O=C(NCc1ccc2c(c1)OCO2)c1ccc2c(c1)C(=O)N(CC1CCCO1)C2=O (stereo unspecified),,inactive: 7.17%
O=C(CSc1ccc2ccccc2c1)Nc1ccncc1,"inconclusive: 2.82 µM [inhibitor, partial curve, poor fit]",
COC(=O)CCSCc1cn2cc(Cl)ccc2n1,active: 6.31 µM,
Oc1ccc(-c2csc(-c3cccnc3)n2)cc1O,,inactive: 2.8%
CSc1ccccc1NS(=O)(=O)c1cccc2nonc12,active: 11.2 µM,
O=C1/C(=C/Nc2ccc3c(c2)OCO3)CCc2ccccc21,,inactive: -71.4%
COc1cc(/C=C(\C#N)C(=O)NCc2cccs2)ccc1O,"inconclusive: 17.8 µM [activator, single point]",
S=C(NCC1CCCCC1)Nc1ccc(Oc2ccccc2)cc1,active: 2.82 µM,

# Given tab-delimited: 3 of the compounds above.
SMILES	Potency	activity change, negative = inhibition
O=C(Nc1cc(C(F)(F)F)ccc1Cl)c1ccncc1		inactive: -2.62%
O=C(COC(=O)c1ccccc1Br)NCCC1=CCCCC1	inconclusive: 28.2 µM [activator, single point]	
O=C(CSc1ccc(Cl)cc1)Nc1cccc(-c2nc3ccccc3[nH]2)c1	inconclusive: 28.2 µM [inhibitor, single point]	

# The listing continues.

SMILES,Potency,"activity change, negative = inhibition"
O=C(Nc1cc(Cl)cc(Cl)c1)C1CCC(=O)N1Cc1ccccc1Cl (stereo unspecified),"inconclusive: 28.2 µM [inhibitor, partial curve, poor fit]",
CN1C(=S)SC(C)(NO)C1(C)C (stereo unspecified),active: 15.8 µM,
Cc1ccc(/C=N/NC(=O)c2cccs2)s1,active: 11.2 µM,
Cc1cc(F)ccc1S(=O)(=O)N1CCCOC1CNC(=O)C(=O)NCc1ccncc1 (stereo unspecified),,inactive: -2.39%
C/C(=N\NC(=O)c1cc(C2CC2)nc2ccccc12)c1ccc(O)cc1O,active: 15.8 µM,
CCN(CCO)c1ccc(N=Nc2cc(C)[nH]n2)cc1,"inconclusive: 17.8 µM [inhibitor, single point]",
COc1ccc(-c2cccc([C@H]3[C@@H]4C=CCC[C@@]4(C)C(=O)N3Cc3ccccc3)c2)cc1,,inactive: 13.7%
O=[N+]([O-])c1ccc2[nH]cc(S(=O)(=O)N3CCN(c4cccc(Cl)c4)CC3)c2c1,"inconclusive: 17.8 µM [activator, single point]",
CC(NS(=O)(=O)OCC(Cl)(Cl)Cl)c1ccc(C(C)(C)C)cc1 (stereo unspecified),"inconclusive: 35.5 µM [inhibitor, single point]",
COc1ccc(Cl)cc1NC(=O)C1CC(c2c(F)cccc2Cl)=NO1 (stereo unspecified),,inactive: 33.9%
CCNC(=S)NNC(=O)c1cccc(Br)c1,"inconclusive: 1.26 µM [inhibitor, full curve, poor fit]",
CCOC(=O)CN1C(=O)C(C)(C)Oc2ccc(C(=O)Nc3ccccc3)cc21,"inconclusive: 20 µM [activator, single point]",
COC(=O)/C=C1\S/C(=N/N=C/c2ccccc2)NC1=O,"inconclusive: 35.5 µM [inhibitor, single point]",
CCCN(CCC)CC(O)Cn1cc(/C=C/C(=O)c2cccs2)c2ccccc21 (stereo unspecified),,inactive: -36.2%
CC(=O)c1cccc(NC(=O)N2CCCC(C(=O)c3cc(F)ccc3F)C2)c1 (stereo unspecified),"inconclusive: 31.6 µM [activator, single point]",
CC(/C=N/Nc1ccc2nncn2n1)=C\c1ccccc1,,inactive: 17.7%
COc1ccc(Cl)cc1NC(=S)NCCc1ccc(F)cc1,active: 14.1 µM,
N#CC(C#N)=c1ccc2c(c1)NC1(CCCCC1)N=2,"inconclusive: 17.8 µM [inhibitor, partial curve, poor fit]",
C/C(CS(=O)(=O)c1ccc(Cl)cc1)=N/NC(N)=S,"inconclusive: 17.8 µM [inhibitor, single point]",
CCCC(=O)N1CCN(c2ccc(NC(=O)C(C)(C)C)cc2Cl)CC1,,inactive: 24.8%
COc1cc2c(cc1NC(=O)c1cccc(F)c1)CCCC2,,inactive: 36.5%
COc1ccc(NS(=O)(=O)c2cccc(C(=O)N/N=C/c3cn(-c4ccccc4)nc3-c3ccccc3)c2)cc1,"inconclusive: 12.6 µM [inhibitor, partial curve, poor fit]",
Brc1csc(/C=N/Nc2nc3ccccc3s2)c1,active: 0.562 µM,
CC(C)OCCCN1C(=O)c2[nH]nc(-c3ccccc3O)c2C1c1cccc(Cl)c1 (stereo unspecified),"inconclusive: 22.4 µM [inhibitor, single point]",
O=C(CCN1CCc2ccccc2CC1)c1ccc2c(c1)OCCO2,active: 6.31 µM,
COc1ccc(CN2C(=O)CCC2(C)C(=O)NC2CCCCCC2)cc1 (stereo unspecified),,inactive: -3.79%

SMILES,Potency,"activity change, negative = inhibition"
Cc1cc(=O)oc2c(C)c(OC(C)C(=O)NC3CCN(Cc4ccccc4)CC3)ccc12 (stereo unspecified),,inactive: 0.702%
O=C(O)c1cccc(NC(=O)c2cn(-c3ccccc3)nc2-c2cccc(Br)c2)c1,"inconclusive: 20 µM [activator, single point]",
O=Cc1c(Sc2ccccn2)nc2ccccn2c1=O,"inconclusive: 1.41 µM [inhibitor, partial curve, poor fit]",
CCCCc1cc(=O)oc2cc(C)cc(OCC(=O)N3CCC(C(=O)O)(c4ccccc4)CC3)c12,"inconclusive: 11.2 µM [activator, partial curve, poor fit]",
O=C1c2ccccc2CN1C(CO)Cc1ccccc1 (stereo unspecified),,inactive: -11.3%
COc1cccc(CNC(=O)C(=O)NCC2OCCCN2S(=O)(=O)c2cc(C)ccc2C)c1 (stereo unspecified),,inactive: 0%
COc1cccc(CNC(=O)c2ccncc2)c1,,inactive: 10.8%
CC(=O)NN1C(=O)/C(=C\c2ccc(Br)o2)SC1=S,,inactive: -10.2%
O=c1c2cnn(-c3ccccc3)c2nc(-c2ccco2)n1-c1ccccc1,"inconclusive: 2.82 µM [activator, full curve, poor fit]",
CC(C)c1nnc(NC(=O)CSc2nc3ccccc3s2)s1,"inconclusive: 35.5 µM [inhibitor, single point]",
Cn1cnc([N+](=O)[O-])c1S(=O)(=O)c1cccc(Cl)c1,active: 2.82 µM,
COCCn1c(SCC(=O)N2CCC(C)CC2)nc2ccccc2c1=O,,inactive: -4.15%
O=C(NC(NC(=S)Nc1cccc(C(=O)O)c1)C(Cl)(Cl)Cl)OCc1ccccc1 (stereo unspecified),,inactive: 13.2%
CC1=NN(C(=O)c2ccc(Cn3nc(C)c([N+](=O)[O-])c3C)o2)C(O)(C(F)(F)F)C1 (stereo unspecified),active: 2.51 µM,
COc1cccc(-c2cc(C(=O)N3CCOCC3)no2)c1,"inconclusive: 17.8 µM [inhibitor, single point]",
CCOc1ccc(C(=O)N2CCCC2)cc1,"inconclusive: 0.398 µM [inhibitor, full curve, poor fit]",
O=C(COC(=O)c1ccccc1NC(=O)C1CC1)c1ccc2c(c1)OCCO2,"inconclusive: 1.26 µM [activator, partial curve, poor fit]",
COc1ccc(N2C(=O)c3ccccc3NC2c2ccccc2O)cc1 (stereo unspecified),"inconclusive: 15.8 µM [inhibitor, single point]",
CCOC(=O)c1cc(CC)sc1NC(=O)c1ccc([N+](=O)[O-])c(N2CCOCC2)c1,,inactive: -4.26%
CC(C)c1ccc(NC(=O)CNS(=O)(=O)c2ccc(F)cc2)cc1,"inconclusive: 22.4 µM [activator, single point]",
COCCOC(=O)C(C#N)c1nc2ccccc2nc1N1CCN(Cc2ccccc2)CC1 (stereo unspecified),,inactive: 20.5%
CC1(C)OC(=O)C(=Cc2ccc(-c3ccc(S(N)(=O)=O)cc3)o2)C(=O)O1,"inconclusive: 1.26 µM [inhibitor, partial curve]",
O=C(Nc1ccc(SC(F)F)cc1)c1ccc(F)cc1,"inconclusive: 0.794 µM [activator, full curve]",
CN1C(=O)c2ccc(NC(=S)NC(=O)C(C)(C)C)cc2C1=O,"inconclusive: 22.4 µM [inhibitor, single point]",

# Part of the list above, with tabs:
SMILES	Potency	activity change, negative = inhibition
COC(=O)CCSCc1cn2cc(Cl)ccc2n1	active: 6.31 µM	
CSc1ccccc1NS(=O)(=O)c1cccc2nonc12	active: 11.2 µM	
O=[N+]([O-])c1ccc2[nH]cc(S(=O)(=O)N3CCN(c4cccc(Cl)c4)CC3)c2c1	inconclusive: 17.8 µM [activator, single point]	
